In publication PMC8220078:
No constants are given. Whether binding was seen depends on the method and setting. For some of these results: Binding seen in cells or lysates may run through a third protein. Some results given as binding are weak or reduced against the parent protein; the word gives no strength. For some of these results: Tags and fused reporters may be left off the sequences shown. Blank lines part the entries; values can stand above or below the binder they belong to.

How the values were obtained:
[1] = target: T1, GFP-LAP2 (35S:GFP–LAP2) (Arabidopsis thaliana) (UniProt Q944P7); experiment: co-IP; 35S:GFP-LAP2 and 35S:CAT2-Flag co-expressed in N. benthamiana leaves for 3 days; total proteins immunoprecipitated with gel-conjugated anti-GFP mAb, immunoblotted with anti-Flag
T1 sequence: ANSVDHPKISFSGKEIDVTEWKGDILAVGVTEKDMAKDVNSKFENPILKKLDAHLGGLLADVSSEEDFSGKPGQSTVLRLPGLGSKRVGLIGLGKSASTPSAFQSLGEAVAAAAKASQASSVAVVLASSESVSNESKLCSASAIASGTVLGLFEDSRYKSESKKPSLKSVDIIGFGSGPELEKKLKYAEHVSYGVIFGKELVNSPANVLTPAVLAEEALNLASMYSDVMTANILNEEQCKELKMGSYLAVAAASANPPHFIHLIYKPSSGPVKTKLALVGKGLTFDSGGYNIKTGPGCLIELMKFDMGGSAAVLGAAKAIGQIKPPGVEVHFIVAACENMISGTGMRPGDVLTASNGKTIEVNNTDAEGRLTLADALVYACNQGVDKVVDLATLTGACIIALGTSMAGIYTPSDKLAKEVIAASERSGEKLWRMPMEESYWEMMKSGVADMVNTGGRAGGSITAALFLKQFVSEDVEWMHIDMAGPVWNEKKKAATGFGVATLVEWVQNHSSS

[2] = target: T2, cLUC-LAP2 (Arabidopsis thaliana) (UniProt Q944P7); experiment: split reporter; luciferase complementation imaging (LCI); nLUC-CAT2 and cLUC-LAP2 co-expressed in N. benthamiana leaves, 3 days after infiltration, D-luciferin
T2 sequence: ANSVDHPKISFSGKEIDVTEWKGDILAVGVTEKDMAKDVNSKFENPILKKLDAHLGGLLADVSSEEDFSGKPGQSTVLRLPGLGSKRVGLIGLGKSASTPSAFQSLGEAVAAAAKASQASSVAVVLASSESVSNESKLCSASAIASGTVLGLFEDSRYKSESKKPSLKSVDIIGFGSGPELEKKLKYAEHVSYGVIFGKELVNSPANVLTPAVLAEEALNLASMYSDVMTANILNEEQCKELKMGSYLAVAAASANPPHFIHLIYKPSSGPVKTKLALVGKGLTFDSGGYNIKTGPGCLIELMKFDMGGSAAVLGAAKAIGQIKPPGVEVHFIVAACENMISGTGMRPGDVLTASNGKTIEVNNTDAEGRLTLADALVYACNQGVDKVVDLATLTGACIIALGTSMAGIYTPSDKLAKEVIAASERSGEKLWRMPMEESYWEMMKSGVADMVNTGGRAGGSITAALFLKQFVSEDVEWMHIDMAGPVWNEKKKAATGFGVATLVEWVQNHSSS

[3] = target: T3, LAP2-YFPc (35S:LAP2-YFPc) (Arabidopsis) (UniProt Q944P7); experiment: split reporter; BiFC; CAT2-YFPn and LAP2-YFPc expressed in N. benthamiana leaves, 3 days after infiltration, confocal microscopy
T3 sequence: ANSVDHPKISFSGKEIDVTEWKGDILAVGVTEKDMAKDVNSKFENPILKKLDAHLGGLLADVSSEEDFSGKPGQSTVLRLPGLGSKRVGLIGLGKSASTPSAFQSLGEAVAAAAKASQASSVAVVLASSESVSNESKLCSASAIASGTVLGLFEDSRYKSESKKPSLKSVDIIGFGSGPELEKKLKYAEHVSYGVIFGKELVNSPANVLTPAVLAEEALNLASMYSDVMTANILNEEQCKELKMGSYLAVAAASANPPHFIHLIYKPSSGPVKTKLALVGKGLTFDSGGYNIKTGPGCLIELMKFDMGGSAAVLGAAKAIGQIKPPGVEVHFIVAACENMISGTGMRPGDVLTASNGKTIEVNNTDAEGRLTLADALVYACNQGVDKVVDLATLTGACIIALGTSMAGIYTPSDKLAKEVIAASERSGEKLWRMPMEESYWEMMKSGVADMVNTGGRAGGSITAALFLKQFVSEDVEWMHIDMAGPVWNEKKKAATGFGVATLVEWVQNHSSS

[4] = target: T4, CAT2 (catalase 2), pGBKT7-CAT2 two-hybrid fusion (Arabidopsis thaliana) (UniProt P25819); experiment: two-hybrid; yeast two-hybrid, Matchmaker system (Clontech); LAP2 in pGADT7, CAT2 in pGBKT7
T4 sequence: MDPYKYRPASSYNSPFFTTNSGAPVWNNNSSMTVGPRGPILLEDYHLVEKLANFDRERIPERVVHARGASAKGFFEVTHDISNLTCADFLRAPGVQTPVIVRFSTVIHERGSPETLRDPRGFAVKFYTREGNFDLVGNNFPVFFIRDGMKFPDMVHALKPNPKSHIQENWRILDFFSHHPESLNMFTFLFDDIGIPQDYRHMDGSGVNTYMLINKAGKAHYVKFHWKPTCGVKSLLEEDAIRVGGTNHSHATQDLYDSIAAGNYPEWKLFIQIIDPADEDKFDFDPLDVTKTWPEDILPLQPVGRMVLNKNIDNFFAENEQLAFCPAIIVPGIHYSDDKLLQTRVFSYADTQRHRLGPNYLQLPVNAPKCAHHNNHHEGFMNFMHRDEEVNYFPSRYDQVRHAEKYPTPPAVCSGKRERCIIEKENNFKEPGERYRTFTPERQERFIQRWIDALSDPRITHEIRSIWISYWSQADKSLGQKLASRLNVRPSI

binding [1]: binds
B1: CAT2-Flag (35S:CAT2-Flag) (protein, UniProt P25819 1-492)
chain: MDPYKYRPASSYNSPFFTTNSGAPVWNNNSSMTVGPRGPILLEDYHLVEKLANFDRERIPERVVHARGASAKGFFEVTHDISNLTCADFLRAPGVQTPVIVRFSTVIHERGSPETLRDPRGFAVKFYTREGNFDLVGNNFPVFFIRDGMKFPDMVHALKPNPKSHIQENWRILDFFSHHPESLNMFTFLFDDIGIPQDYRHMDGSGVNTYMLINKAGKAHYVKFHWKPTCGVKSLLEEDAIRVGGTNHSHATQDLYDSIAAGNYPEWKLFIQIIDPADEDKFDFDPLDVTKTWPEDILPLQPVGRMVLNKNIDNFFAENEQLAFCPAIIVPGIHYSDDKLLQTRVFSYADTQRHRLGPNYLQLPVNAPKCAHHNNHHEGFMNFMHRDEEVNYFPSRYDQVRHAEKYPTPPAVCSGKRERCIIEKENNFKEPGERYRTFTPERQERFIQRWIDALSDPRITHEIRSIWISYWSQADKSLGQKLASRLNVRPSI

binding [2]: binds
B2: nLUC-CAT2 (protein, UniProt P25819 1-492)
chain: MDPYKYRPASSYNSPFFTTNSGAPVWNNNSSMTVGPRGPILLEDYHLVEKLANFDRERIPERVVHARGASAKGFFEVTHDISNLTCADFLRAPGVQTPVIVRFSTVIHERGSPETLRDPRGFAVKFYTREGNFDLVGNNFPVFFIRDGMKFPDMVHALKPNPKSHIQENWRILDFFSHHPESLNMFTFLFDDIGIPQDYRHMDGSGVNTYMLINKAGKAHYVKFHWKPTCGVKSLLEEDAIRVGGTNHSHATQDLYDSIAAGNYPEWKLFIQIIDPADEDKFDFDPLDVTKTWPEDILPLQPVGRMVLNKNIDNFFAENEQLAFCPAIIVPGIHYSDDKLLQTRVFSYADTQRHRLGPNYLQLPVNAPKCAHHNNHHEGFMNFMHRDEEVNYFPSRYDQVRHAEKYPTPPAVCSGKRERCIIEKENNFKEPGERYRTFTPERQERFIQRWIDALSDPRITHEIRSIWISYWSQADKSLGQKLASRLNVRPSI

binding [3]: binds
B3: CAT2-YFPn (35S:CAT2-YFPn) (protein, UniProt P25819 1-492)
chain: MDPYKYRPASSYNSPFFTTNSGAPVWNNNSSMTVGPRGPILLEDYHLVEKLANFDRERIPERVVHARGASAKGFFEVTHDISNLTCADFLRAPGVQTPVIVRFSTVIHERGSPETLRDPRGFAVKFYTREGNFDLVGNNFPVFFIRDGMKFPDMVHALKPNPKSHIQENWRILDFFSHHPESLNMFTFLFDDIGIPQDYRHMDGSGVNTYMLINKAGKAHYVKFHWKPTCGVKSLLEEDAIRVGGTNHSHATQDLYDSIAAGNYPEWKLFIQIIDPADEDKFDFDPLDVTKTWPEDILPLQPVGRMVLNKNIDNFFAENEQLAFCPAIIVPGIHYSDDKLLQTRVFSYADTQRHRLGPNYLQLPVNAPKCAHHNNHHEGFMNFMHRDEEVNYFPSRYDQVRHAEKYPTPPAVCSGKRERCIIEKENNFKEPGERYRTFTPERQERFIQRWIDALSDPRITHEIRSIWISYWSQADKSLGQKLASRLNVRPSI

binding [4]: binds
B4: Leucine aminopeptidase 2 (LAP2), pGADT7 two-hybrid fusion (protein, UniProt Q944P7 1-583)
chain: MAVTLVTSFASSSSRFHFRSFSSSPSSLSSCFVRFQFPSRLRLAFAVTPLYSSSRAMAHTISHATLGLTQANSVDHPKISFSGKEIDVTEWKGDILAVGVTEKDMAKDVNSKFENPILKKLDAHLGGLLADVSSEEDFSGKPGQSTVLRLPGLGSKRVGLIGLGKSASTPSAFQSLGEAVAAAAKASQASSVAVVLASSESVSNESKLCSASAIASGTVLGLFEDSRYKSESKKPSLKSVDIIGFGSGPELEKKLKYAEHVSYGVIFGKELVNSPANVLTPAVLAEEALNLASMYSDVMTANILNEEQCKELKMGSYLAVAAASANPPHFIHLIYKPSSGPVKTKLALVGKGLTFDSGGYNIKTGPGCLIELMKFDMGGSAAVLGAAKAIGQIKPPGVEVHFIVAACENMISGTGMRPGDVLTASNGKTIEVNNTDAEGRLTLADALVYACNQGVDKVVDLATLTGACIIALGTSMAGIYTPSDKLAKEVIAASERSGEKLWRMPMEESYWEMMKSGVADMVNTGGRAGGSITAALFLKQFVSEDVEWMHIDMAGPVWNEKKKAATGFGVATLVEWVQNHSSS
